# Experimental data from PMC9562647.
# Amino acid sequences for entries named in this document (tags omitted). Residues count along the entry.
# UniProt P40763: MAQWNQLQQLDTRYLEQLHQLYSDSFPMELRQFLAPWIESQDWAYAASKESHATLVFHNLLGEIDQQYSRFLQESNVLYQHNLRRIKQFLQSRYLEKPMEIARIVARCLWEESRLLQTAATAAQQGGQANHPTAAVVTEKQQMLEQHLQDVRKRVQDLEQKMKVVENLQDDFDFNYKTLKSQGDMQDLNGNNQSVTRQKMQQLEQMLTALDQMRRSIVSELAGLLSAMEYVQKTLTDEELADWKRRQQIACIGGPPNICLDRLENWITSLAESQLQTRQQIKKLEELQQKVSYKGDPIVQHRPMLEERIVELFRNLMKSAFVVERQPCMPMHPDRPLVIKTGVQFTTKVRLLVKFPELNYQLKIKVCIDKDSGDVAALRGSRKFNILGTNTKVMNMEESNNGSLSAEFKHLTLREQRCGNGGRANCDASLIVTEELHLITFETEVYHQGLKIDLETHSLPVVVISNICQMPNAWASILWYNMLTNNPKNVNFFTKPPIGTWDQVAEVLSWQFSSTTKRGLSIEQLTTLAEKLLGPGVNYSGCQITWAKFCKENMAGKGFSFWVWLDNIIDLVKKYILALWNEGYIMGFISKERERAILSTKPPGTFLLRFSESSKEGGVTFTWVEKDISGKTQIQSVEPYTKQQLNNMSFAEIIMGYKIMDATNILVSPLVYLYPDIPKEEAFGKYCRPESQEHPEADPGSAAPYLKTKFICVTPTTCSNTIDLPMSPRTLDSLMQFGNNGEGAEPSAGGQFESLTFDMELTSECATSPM
# UniProt P16070, residues 21-742: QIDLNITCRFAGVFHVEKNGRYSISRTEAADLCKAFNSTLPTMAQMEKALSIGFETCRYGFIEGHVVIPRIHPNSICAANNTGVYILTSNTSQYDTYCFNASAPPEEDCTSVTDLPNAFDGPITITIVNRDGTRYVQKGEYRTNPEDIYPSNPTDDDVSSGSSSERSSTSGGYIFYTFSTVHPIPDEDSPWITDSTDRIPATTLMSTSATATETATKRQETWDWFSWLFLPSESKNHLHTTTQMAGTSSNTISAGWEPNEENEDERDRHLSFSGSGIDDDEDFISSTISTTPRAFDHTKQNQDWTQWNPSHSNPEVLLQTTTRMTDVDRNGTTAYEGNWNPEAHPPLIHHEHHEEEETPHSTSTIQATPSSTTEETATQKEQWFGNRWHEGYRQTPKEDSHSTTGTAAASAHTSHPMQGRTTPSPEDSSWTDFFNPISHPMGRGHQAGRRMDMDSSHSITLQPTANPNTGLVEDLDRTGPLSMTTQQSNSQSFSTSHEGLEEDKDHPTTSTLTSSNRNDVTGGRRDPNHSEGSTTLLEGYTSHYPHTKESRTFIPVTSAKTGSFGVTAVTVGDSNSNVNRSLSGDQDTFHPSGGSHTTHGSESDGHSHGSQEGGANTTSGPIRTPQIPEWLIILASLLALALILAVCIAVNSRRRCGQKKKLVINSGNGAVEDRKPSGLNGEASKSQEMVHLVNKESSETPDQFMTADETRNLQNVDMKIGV
# These are yes or no findings as the source states them, for the method shown. Binding seen in cells or lysates may run through a third protein. Some binding calls cover weakened binding; strength is not graded here.
# Assays:
# [1] = target: STAT3 (human (endogenous in A549)) (UniProt P40763); experiment: co-IP; whole lysates of A549 cells, pre-cleared, incubated with anti-STAT3 or anti-CD44 antibody overnight at 4 °C; protein G magnetic beads; precipitate detected for CD44 or STAT3 by western blotting; isotype IgG also applied
# [2] = target: CD44 (human (endogenous in A549)) (UniProt P16070); experiment: as above
binding [1],binding [2],Substance
binds,–,CD44 (from UniProt P16070 21-742) (receptor)
–,binds,STAT3 (from UniProt P40763 1-770)
